# Whole data set: some 33,000 sequences, median “E-score (-0.5 to 0.5)” near -0.015, cut for the highest 2% near 0.3. The list shows a part of the results.
# Biological target: T1, Abf1 (UniProt P14164)
# T1 sequence: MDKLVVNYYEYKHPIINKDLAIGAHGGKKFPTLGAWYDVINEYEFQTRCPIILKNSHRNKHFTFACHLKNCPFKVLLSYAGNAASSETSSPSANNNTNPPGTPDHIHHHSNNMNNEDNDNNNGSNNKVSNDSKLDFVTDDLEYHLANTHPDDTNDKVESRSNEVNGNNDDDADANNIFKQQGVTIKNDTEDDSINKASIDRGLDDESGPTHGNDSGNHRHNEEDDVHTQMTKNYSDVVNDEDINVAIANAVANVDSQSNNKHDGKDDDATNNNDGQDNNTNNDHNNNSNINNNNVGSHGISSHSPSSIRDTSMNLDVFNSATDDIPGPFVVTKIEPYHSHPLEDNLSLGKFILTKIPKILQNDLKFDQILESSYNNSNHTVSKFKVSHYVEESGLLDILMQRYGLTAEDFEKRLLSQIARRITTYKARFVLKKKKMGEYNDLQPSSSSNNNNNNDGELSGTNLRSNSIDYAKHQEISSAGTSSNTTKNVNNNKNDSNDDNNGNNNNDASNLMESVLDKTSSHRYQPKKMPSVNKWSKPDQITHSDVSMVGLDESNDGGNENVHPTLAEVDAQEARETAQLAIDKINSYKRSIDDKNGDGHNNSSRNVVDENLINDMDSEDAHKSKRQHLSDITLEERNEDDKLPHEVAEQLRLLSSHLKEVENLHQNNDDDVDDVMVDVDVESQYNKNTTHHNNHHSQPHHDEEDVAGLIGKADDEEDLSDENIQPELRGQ
# Test: PBM E-score (8-mer binding enrichment) (E-score (-0.5 to 0.5)); higher = stronger / more preferred TF binding
# Conditions: protein concentration: 200 nM; construct: GST-full length
# Method in brief: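 PURExpress in vitro transcription/translation supplied GST-tagged yeast transcription factors, either full-length or DNA-binding domain. Applied at about 100-200 nM to universal all-10-mer Agilent arrays double-stranded by primer extension, the bound protein was detected with fluorescent anti-GST. E-scores, modified Wilcoxon-Mann-Whitney statistics, were given by the Universal PBM Analysis Suite to ungapped eight-base words pooled with their reverse complements after masliner normalisation.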
row,Sequence,PBM E-score
1,GAATTTTA,0.15
2,ACTTGCCA,0.0094
3,CTCATAGC,-0.0943
4,ACTAGAAC,0.0148
5,GATCGATA,0.163
6,GGTACATA,0.0058
7,ATTTATTC,0.188
8,AATCGCAC,0.0211
9,AACACGAT,0.247
10,ATTGGGTA,0.0312
11,GAAAACGC,-0.0304
12,CCACAGAA,-0.0526
13,ATCATCGG,0.116
14,ATAACAAT,-0.0401
15,ACCCCCAC,-0.323
16,TAAGGGGA,-0.023
17,ACTTCGAA,0.169
18,ATTGACGC,-0.156
19,AGAGTCAT,-0.242
20,AGCGTCAA,-0.00287
21,GCGCGTTA,0.131
22,CGTGGTCA,0.075
23,AATATTAC,0.196
24,ACTCTGGC,-0.0261
25,ATAAAATG,0.272

row,Sequence,PBM E-score
1,CAGTATCC,-0.112
2,GAACCGAC,0.0311
3,CGGATAAC,0.136
4,GGGCGCAC,-0.245
5,CTCCCTAC,-0.14
6,AGCGGGAT,-0.0541
7,ATATCGCA,0.144
8,AAGGACCA,-0.137
9,ATTGAGTA,0.117
10,CCGGGAGG,-0.279
11,CAGAAGGC,-0.197
12,CGAAATGA,0.273
13,CTGTTGGA,-0.157
14,AGACAGAA,-0.0173
15,GATATGGC,-0.105
16,ATTTCATG,0.0812
17,GGAGACTA,-0.107
18,ACACGTGT,0.0282
19,AGGATGAC,0.258
20,ATGGTCGA,0.0957
21,ACAGATGG,-0.205
22,CGGTATTA,-0.0111
23,GAACGTCA,0.102
24,GGAAGAGA,0.0148
25,CCGCCAGC,-0.27

row,Sequence,PBM E-score
1,GCTATATA,-0.0469
2,CGATCAAC,0.129
3,CCCCGCTC,-0.347
4,ACGGTCCA,0.0955
5,ATGAGATG,0.0829
6,ACATCACG,0.231
7,ACCGCCCC,-0.253
8,TACACTAA,0.114
9,TAGCTGAA,-0.089
10,ATGGCCTG,-0.399
11,AAAGAGCC,-0.106
12,CTTTGCTC,-0.0823
13,AGCTTAAG,-0.0633
14,GTCTGCAC,-0.061
15,AGCAAGAA,-0.132
16,AGTTCCCG,-0.0372
17,CGCTTCCG,0.133
18,AACTAGGC,-0.192
19,ACCGGACT,-0.0079
20,CAGCGATG,-0.0769
21,GAGTTGAC,0.0435
22,GAGCCAAC,-0.286
23,CAGTCCTA,0.0184
24,AGGGCTGC,-0.264
25,GAAACCCC,-0.219

row,Sequence,PBM E-score
1,CATCAGAA,-0.0549
2,GGACACGA,0.043
3,GGGTTTGA,0.121
4,GTGTGTCA,0.219
5,ATTTCGGA,0.0608
6,ATCTTACG,0.0708
7,AAGTTTGG,0.0771
8,CCGCCGAG,-0.108
9,AATAGAGG,-0.153
10,ATTAACGA,0.277
11,AACTGCGG,-0.15
12,CGACAACG,0.218
13,AACATGTC,0.203
14,GACAGACA,0.119
15,ATTCGGGA,0.114
16,CCATCGTA,0.293
17,AATTCTTA,-0.0248
18,CCCGGGAA,-0.173
19,ACCGCAAA,0.0975
20,ATTATCTG,0.0187
21,CTGGAGGC,-0.178
22,CTTTGCCA,0.0118
23,AGTTTATC,0.173
24,ATTGCGGC,-0.119
25,GGTACTTA,0.0705

row,Sequence,PBM E-score
1,ACCTTTGC,-0.0683
2,ATAGAGTC,-0.114
3,CCAGTGGG,-0.291
4,CCGTAGCA,0.0887
5,CATTGACG,0.257
6,GAACGAAA,0.0353
7,AGGTTAAC,-0.114
8,CCGTCCGA,0.171
9,ACACGTCC,-0.0608
10,AGAGTATG,-0.049
11,CCAATTTC,-0.0137
12,CGATACAG,-0.0796
13,CCGGGAAG,-0.0968
14,AAGATCGC,0.169
15,AAATCGCT,0.0616
16,CAGTAGCC,-0.0691
17,ATATCTCC,0.0235
18,GTGAAGAA,0.115
19,ATGGACAG,-0.0977
20,CCCCAAAG,-0.22
21,GGAAATCA,0.176
22,GTCGAGAA,0.0989
23,AGGTGCAA,-0.153
24,ATATGTTG,0.102
25,AAGGCCAG,-0.0747

row,Sequence,PBM E-score
1,AGCGTACT,-0.0636
2,CTACCAAG,-0.0716
3,CAACGAAG,0.139
4,TACTTGAA,0.179
5,GCAGTACA,-0.0702
6,AGACCAAT,-0.0446
7,AGGGCGGG,-0.0938
8,CGAGAATA,0.0831
9,ACACACAC,-0.0838
10,GGATTACA,-0.101
11,AGTGATAT,0.442
12,CATCTTGG,0.0466
13,CATCGGCA,-0.063
14,CGAAGTAC,0.0735
15,GAAGGGGC,-0.242
16,TGAGAACA,0.0414
17,AAACGCGA,0.161
18,GTCGCGTA,0.244
19,ATCGCCAT,0.104
20,ATCCGCTC,-0.229
21,ATAAAGAC,0.119
22,ATTAAAAG,-0.103
23,AAGCGAGT,0.0341
24,ACTTATAG,-0.0527
25,CGTCGGCC,0.161

# 31 consecutive entries already listed, for reference:
row,Sequence,PBM E-score
18,GTGAAGAA,0.115
19,ATGGACAG,-0.0977
20,CCCCAAAG,-0.22
21,GGAAATCA,0.176
22,GTCGAGAA,0.0989
23,AGGTGCAA,-0.153
24,ATATGTTG,0.102
25,AAGGCCAG,-0.0747
1,AGCGTACT,-0.0636
2,CTACCAAG,-0.0716
3,CAACGAAG,0.139
4,TACTTGAA,0.179
5,GCAGTACA,-0.0702
6,AGACCAAT,-0.0446
7,AGGGCGGG,-0.0938
8,CGAGAATA,0.0831
9,ACACACAC,-0.0838
10,GGATTACA,-0.101
11,AGTGATAT,0.442
12,CATCTTGG,0.0466
13,CATCGGCA,-0.063
14,CGAAGTAC,0.0735
15,GAAGGGGC,-0.242
16,TGAGAACA,0.0414
17,AAACGCGA,0.161
18,GTCGCGTA,0.244
19,ATCGCCAT,0.104
20,ATCCGCTC,-0.229
21,ATAAAGAC,0.119
22,ATTAAAAG,-0.103
23,AAGCGAGT,0.0341

# (next part)

row,Sequence,PBM E-score
1,GACTTGGC,-0.216
2,GAGCCTTA,-0.148
3,ATGACAAG,0.282
4,GCAAAACA,-0.053
5,GTCATTCA,0.195
6,GTACGTAC,-0.0114
7,CCCTCGAC,-0.149
8,CGCGGGGA,-0.155
9,ACCCGTAA,0.0373
10,AATACTAT,-0.00924
11,ATCTATCA,0.202
12,CTGCAACA,0.0449
13,CCTGTGTA,0.0747
14,AAGATATA,0.162
15,AGGGTGTC,-0.00393
16,CAGGAGAG,-0.155
17,CCAAGAGG,-0.0611
18,AGAGCAAA,-0.12
19,AGAGATAC,0.121
20,CCCCCTCG,-0.316
21,GTCTGCTA,-0.00168
22,ATAGAATA,0.138
